Assay results published in the supplement of paper PMC12823440, “Inhibitors supercharge kinase turnover through native proteolytic circuits” (Nature, 2025).
Counter-ions that a name gives are not always drawn. The list shows a part of the results. The calls rarely recur for the same compound in another form.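 In K562 cells expressing nanoluciferase-fused kinases, luminescence was recorded at 4 h intervals between 2 and 18 h, normalized as percent of control with DMSO at 100% and a positive control at 0%. A significant (2 sigma) signal drop marks a time point as decreased. The authors' rule for a hit is not shown and takes in more than the number of time points.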

By UniProt entry, the sequences of proteins in these tests, tags left out. Where a name states a change or a piece, a line headed by the entry shows the natural chain unless it says otherwise.
UniProt Q15303, whole entry R711C: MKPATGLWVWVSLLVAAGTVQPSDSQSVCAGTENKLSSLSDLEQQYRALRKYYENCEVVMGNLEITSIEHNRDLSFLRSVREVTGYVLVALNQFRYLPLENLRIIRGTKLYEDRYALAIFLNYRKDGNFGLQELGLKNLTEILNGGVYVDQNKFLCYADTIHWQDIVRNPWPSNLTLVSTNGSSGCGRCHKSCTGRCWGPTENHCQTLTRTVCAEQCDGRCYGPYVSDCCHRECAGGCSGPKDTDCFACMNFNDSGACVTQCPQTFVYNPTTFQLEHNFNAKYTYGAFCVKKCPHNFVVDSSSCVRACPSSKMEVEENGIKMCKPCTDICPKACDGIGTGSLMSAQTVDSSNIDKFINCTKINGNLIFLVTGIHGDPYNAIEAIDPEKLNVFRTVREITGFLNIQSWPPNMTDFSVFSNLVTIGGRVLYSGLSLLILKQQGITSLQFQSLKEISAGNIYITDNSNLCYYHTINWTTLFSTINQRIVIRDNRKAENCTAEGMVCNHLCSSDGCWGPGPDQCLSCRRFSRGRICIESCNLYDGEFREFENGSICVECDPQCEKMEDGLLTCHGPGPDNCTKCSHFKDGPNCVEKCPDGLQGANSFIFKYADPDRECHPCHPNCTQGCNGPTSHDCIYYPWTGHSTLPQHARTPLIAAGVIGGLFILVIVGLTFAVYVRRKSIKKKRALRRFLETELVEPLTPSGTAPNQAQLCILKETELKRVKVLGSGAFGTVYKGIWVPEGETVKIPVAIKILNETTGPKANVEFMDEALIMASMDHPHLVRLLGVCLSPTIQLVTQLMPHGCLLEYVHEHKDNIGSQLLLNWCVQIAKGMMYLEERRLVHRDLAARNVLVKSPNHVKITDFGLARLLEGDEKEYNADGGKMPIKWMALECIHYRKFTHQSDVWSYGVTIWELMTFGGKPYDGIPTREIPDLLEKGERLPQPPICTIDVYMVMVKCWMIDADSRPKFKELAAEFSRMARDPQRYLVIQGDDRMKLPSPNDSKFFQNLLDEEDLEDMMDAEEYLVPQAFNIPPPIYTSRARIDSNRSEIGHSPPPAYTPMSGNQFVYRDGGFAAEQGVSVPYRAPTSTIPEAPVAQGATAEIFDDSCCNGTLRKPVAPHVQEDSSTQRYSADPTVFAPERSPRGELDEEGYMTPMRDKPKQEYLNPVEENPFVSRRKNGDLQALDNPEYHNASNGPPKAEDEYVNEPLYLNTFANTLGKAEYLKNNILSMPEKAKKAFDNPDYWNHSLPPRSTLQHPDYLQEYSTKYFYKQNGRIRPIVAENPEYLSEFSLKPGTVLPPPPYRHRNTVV
UniProt O75460: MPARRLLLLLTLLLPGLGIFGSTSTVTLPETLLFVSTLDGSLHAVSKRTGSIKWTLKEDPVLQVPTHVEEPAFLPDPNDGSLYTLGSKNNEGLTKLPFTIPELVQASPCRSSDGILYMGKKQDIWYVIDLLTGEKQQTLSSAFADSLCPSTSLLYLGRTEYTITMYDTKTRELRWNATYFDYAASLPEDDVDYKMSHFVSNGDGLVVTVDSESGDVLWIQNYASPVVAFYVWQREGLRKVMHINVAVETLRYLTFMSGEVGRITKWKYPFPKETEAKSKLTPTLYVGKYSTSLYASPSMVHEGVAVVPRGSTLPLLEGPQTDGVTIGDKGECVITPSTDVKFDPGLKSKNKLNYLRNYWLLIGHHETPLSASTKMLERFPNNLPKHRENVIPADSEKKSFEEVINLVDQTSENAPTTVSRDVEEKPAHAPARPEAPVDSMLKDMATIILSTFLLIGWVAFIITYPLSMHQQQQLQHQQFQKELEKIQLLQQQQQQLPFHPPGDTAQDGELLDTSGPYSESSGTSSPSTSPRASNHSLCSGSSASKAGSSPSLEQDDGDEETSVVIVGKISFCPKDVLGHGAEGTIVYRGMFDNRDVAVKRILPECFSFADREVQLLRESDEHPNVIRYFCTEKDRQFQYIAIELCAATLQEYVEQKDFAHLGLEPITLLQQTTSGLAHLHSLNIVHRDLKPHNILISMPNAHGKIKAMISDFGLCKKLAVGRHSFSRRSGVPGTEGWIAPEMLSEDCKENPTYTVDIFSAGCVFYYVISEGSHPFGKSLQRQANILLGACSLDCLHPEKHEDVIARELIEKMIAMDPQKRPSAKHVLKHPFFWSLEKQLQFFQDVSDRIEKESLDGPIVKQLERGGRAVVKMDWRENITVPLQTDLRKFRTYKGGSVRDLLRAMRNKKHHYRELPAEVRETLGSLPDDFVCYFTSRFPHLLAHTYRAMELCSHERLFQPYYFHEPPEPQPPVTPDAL
UniProt P36888, whole entry: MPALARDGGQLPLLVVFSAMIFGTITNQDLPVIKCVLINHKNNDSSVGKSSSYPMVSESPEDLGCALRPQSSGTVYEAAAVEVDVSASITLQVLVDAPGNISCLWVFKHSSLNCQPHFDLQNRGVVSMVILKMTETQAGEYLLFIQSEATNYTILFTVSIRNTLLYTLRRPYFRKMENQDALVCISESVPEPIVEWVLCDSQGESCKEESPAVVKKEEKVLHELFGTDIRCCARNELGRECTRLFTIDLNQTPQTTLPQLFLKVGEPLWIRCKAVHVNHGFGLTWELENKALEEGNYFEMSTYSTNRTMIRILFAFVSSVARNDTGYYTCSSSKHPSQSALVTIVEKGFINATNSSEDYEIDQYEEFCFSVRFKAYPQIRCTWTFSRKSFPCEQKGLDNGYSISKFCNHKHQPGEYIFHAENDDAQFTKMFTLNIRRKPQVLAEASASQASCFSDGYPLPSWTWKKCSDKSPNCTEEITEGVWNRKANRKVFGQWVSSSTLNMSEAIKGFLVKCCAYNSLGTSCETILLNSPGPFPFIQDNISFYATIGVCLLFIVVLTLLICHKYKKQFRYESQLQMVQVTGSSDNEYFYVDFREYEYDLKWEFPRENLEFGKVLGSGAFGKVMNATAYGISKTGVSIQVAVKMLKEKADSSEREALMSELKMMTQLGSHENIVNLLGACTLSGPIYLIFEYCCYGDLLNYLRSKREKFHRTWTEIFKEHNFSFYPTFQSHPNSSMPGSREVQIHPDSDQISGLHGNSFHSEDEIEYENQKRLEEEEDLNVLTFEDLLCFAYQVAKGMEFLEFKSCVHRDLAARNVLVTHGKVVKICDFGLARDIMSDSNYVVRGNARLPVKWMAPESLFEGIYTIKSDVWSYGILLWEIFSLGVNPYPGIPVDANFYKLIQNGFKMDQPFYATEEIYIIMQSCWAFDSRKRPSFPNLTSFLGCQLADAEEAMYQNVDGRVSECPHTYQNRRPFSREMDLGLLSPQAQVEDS
UniProt P06241, whole entry, looked up: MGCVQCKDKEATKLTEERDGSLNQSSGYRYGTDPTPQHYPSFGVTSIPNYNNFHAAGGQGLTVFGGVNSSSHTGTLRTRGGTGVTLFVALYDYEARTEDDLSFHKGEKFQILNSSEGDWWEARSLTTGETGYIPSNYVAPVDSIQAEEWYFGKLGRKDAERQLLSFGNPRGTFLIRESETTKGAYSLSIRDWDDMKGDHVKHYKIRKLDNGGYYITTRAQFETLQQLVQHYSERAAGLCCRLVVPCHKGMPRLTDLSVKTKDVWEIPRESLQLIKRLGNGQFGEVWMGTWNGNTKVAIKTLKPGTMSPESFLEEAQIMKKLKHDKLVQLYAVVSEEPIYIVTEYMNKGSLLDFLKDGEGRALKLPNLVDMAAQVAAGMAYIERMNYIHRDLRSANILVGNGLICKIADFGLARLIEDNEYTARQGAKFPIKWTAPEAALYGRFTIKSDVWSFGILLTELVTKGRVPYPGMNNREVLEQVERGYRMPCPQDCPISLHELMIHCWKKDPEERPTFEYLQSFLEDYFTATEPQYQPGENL
UniProt P23458: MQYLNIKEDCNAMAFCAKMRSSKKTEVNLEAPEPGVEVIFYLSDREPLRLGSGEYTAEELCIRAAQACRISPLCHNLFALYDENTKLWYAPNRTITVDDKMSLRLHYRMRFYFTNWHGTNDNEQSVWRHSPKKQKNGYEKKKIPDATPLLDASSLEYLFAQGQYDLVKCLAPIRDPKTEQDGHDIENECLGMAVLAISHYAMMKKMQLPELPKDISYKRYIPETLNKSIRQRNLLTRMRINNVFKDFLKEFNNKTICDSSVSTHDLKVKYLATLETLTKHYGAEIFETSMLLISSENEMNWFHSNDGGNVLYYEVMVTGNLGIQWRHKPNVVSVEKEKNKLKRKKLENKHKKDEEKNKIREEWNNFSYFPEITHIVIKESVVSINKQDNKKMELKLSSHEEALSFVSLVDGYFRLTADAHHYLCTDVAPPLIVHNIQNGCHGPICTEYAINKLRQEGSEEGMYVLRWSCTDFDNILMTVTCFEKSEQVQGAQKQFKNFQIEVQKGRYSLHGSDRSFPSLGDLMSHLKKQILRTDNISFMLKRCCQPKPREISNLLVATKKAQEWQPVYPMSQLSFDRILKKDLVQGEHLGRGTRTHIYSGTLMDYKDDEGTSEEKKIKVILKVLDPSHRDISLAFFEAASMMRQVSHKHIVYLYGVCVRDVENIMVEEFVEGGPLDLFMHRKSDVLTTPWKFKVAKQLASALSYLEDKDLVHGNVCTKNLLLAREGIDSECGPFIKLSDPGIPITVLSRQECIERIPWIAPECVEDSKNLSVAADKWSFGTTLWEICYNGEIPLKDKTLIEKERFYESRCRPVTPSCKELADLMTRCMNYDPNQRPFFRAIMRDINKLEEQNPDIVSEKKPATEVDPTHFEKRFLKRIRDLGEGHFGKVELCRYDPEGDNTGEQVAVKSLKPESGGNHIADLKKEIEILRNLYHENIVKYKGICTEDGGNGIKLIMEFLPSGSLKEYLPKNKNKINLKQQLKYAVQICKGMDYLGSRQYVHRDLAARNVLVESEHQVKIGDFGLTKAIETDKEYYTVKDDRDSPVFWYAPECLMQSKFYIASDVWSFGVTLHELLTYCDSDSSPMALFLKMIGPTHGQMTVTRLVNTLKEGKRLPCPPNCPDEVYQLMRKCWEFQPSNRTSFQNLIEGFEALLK
UniProt P53667: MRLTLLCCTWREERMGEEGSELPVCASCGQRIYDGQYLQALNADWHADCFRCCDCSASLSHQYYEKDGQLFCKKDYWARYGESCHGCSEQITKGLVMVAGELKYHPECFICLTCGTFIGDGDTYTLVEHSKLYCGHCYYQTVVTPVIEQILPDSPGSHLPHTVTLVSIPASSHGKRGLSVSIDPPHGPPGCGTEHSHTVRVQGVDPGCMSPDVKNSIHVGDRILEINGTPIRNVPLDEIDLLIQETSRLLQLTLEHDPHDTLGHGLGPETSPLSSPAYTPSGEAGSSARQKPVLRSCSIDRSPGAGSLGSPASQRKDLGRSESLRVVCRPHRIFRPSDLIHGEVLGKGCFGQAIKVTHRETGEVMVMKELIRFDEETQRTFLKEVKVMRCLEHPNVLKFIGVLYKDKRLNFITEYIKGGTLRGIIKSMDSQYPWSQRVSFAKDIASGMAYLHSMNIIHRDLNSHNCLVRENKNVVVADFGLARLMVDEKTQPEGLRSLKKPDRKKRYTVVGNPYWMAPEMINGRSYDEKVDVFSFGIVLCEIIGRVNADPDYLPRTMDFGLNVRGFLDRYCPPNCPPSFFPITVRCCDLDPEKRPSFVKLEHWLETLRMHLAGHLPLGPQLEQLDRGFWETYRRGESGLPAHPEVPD
UniProt P21802, whole entry, looked up: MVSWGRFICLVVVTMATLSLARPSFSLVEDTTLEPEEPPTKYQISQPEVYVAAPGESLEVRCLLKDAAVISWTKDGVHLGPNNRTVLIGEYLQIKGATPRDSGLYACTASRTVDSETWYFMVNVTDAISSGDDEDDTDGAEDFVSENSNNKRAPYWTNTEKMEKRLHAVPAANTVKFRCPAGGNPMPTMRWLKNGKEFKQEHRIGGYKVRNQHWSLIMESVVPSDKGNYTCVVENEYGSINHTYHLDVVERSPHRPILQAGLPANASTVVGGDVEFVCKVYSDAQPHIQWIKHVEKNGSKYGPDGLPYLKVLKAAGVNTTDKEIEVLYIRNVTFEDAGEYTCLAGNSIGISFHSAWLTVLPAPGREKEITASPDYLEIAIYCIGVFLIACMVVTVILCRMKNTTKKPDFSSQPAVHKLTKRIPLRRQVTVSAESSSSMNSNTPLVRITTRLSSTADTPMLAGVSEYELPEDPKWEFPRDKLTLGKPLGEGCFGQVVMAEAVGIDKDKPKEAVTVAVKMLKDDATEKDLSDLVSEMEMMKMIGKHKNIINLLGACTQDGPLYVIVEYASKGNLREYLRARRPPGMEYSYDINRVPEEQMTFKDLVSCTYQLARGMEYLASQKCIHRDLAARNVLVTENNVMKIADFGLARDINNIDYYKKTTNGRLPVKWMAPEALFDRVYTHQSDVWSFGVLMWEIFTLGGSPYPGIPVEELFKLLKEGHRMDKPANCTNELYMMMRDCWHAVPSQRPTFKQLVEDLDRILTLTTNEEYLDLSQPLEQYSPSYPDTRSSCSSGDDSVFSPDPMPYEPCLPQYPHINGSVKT

Key:
Assay in all cases: number of time points (of 5) at which kinase-Nluc abundance scored as decreased, DMSO-normalised (count); higher = more persistent destabilization
Settings in all cases: K562; 2-18 h
EGFR_L861Q = EGFR_L861Q (UniProt P00533)
EGFR_T790M = EGFR_T790M (UniProt P00533)
EPHA2 = EPHA2 (UniProt P29317)
ERBB3 = ERBB3 (UniProt P21860)
[1] = target: ERBB4_R711C (clone: ERBB4_mut) (UniProt Q15303)
ERN1 = ERN1 (UniProt O75460)
FGFR1 = FGFR1 (UniProt P11362)
FGFR3 = FGFR3 (UniProt P22607)
FGR = FGR (UniProt P09769)
FLT3 = FLT3 (UniProt P36888)
FYN = FYN (UniProt P06241)
GSK3A = GSK3A (UniProt P49840)
HER2 = HER2 (UniProt P04626)
INSRR = INSRR (UniProt P14616)
IRAK3 = IRAK3 (UniProt Q9Y616)
JAK1 = JAK1 (UniProt P23458)
LCK = LCK (UniProt P06239)
LIMK1 = LIMK1 (UniProt P53667)
LIMK2 = LIMK2 (UniProt P53671)
FGFR2 = FGFR2 (UniProt P21802)

| Structure (SMILES) | number of time points (EGFR_L861Q) | number of time points (EGFR_T790M) | number of time points (EPHA2) | number of time points (ERBB3) | number of time points [1] | number of time points (ERN1) | number of time points (FGFR1) | number of time points (FGFR3) | number of time points (FGR) | number of time points (FLT3) | number of time points (FYN) | number of time points (GSK3A) | number of time points (HER2) | number of time points (INSRR) | number of time points (IRAK3) | number of time points (JAK1) | number of time points (LCK) | number of time points (LIMK1) | number of time points (LIMK2) | number of time points (FGFR2) |
| --- | --- | --- | --- | --- | --- | --- | --- | --- | --- | --- | --- | --- | --- | --- | --- | --- | --- | --- | --- | --- |
| COc1cc(N2CCC(N)CC2)ccc1Nc1ncc(Cl)c(-c2c[nH]c3ccccc23)n1 (2.5 µM) | 0 | 0 | 0 | 0 | 0 | 0 | 0 | 0 | 0 | 0 | 0 | 0 | 0 | 0 | 0 | 0 | 0 | 0 | 0 | – |
| COc1ccc(Oc2cc(NCCC(F)(F)F)c3ncc(-c4ccc(C(=O)NC5CC5)c(C)c4)n3n2)c(F)c1F (2.5 µM) | 0 | 0 | 0 | 0 | 0 | 0 | 0 | 0 | 0 | 0 | 0 | 0 | 0 | 0 | 0 | 0 | 0 | 0 | 0 | 0 |
| CCCn1cnc2c(NCc3ccccc3)nc(NC(CC)CO)nc21 (configuration not stated) [Ca2+ channel agonist 1] (2.5 µM) | 0 | 0 | 0 | 0 | 0 | 0 | 0 | 0 | 0 | 0 | 0 | 0 | 0 | 0 | 0 | 0 | 0 | 0 | 0 | 0 |
| COc1cc2c(Nc3ccc(NC(=O)c4ccccc4)cc3)ncnc2cc1OCCCN1CCOCC1 (10 µM) | 0 | 0 | 0 | 0 | 0 | 0 | 0 | 0 | 0 | 0 | 4 | 0 | 1 | 0 | 0 | 0 | – | 0 | 0 | 0 |
| C=CC(=O)N1C[C@H](Nc2ncnc3[nH]ccc23)CC[C@@H]1C [Ritlecitinib] (10 µM) | 0 | 0 | 0 | 0 | 0 | 0 | 0 | 0 | 0 | 0 | 0 | 0 | 0 | 0 | 0 | 0 | 0 | 0 | 0 | 0 |
| Cc1ccc(F)c(NC(=O)Nc2ccc(-c3cccc4[nH]nc(N)c34)cc2)c1 [Linifanib] (2.5 µM) | 0 | 0 | 2 | 0 | 0 | 0 | 5 | 0 | 0 | 0 | 0 | 0 | 0 | 0 | 0 | 0 | 0 | 0 | 0 | 0 |
| Cc1c[nH]c(/C=C2\C(=O)Nc3ccccc32)c1CCC(=O)O (10 µM) | 0 | 0 | 0 | 0 | 0 | 0 | – | 0 | 0 | 0 | 0 | 0 | 0 | 0 | 0 | 0 | 0 | 0 | 0 | 0 |
| CC(C)(C)S(=O)(=O)c1cc2c(Nc3ccc4scnc4c3)ncnc2cc1OCCO (2.5 µM) | 0 | 0 | 0 | 0 | 0 | – | 0 | 0 | 0 | 0 | 0 | 0 | 0 | 0 | 0 | 0 | 0 | 0 | 0 | 0 |
| Cc1nc(N)sc1-c1ccnc(Nc2ccc(N3CCOCC3)cc2)n1 (10 µM) | – | – | 0 | 0 | 0 | 0 | 0 | 0 | 0 | 0 | 3 | 0 | 2 | 0 | 0 | 0 | 0 | 1 | 0 | 3 |
| CNC(=O)c1cc(Oc2ccc(NC(=O)Nc3cc(C(C)(C)C)nn3-c3ccc4ncccc4c3)c(F)c2)ccn1 [Rebastinib] (2.5 µM) | 0 | 2 | 0 | 4 | 4 | – | 4 | 2 | 0 | 3 | 4 | 0 | 2 | 3 | 3 | 3 | 0 | 5 | 3 | 4 |
| O=C1Nc2ccccc2/C1=C/c1ccc(F)cc1 (10 µM) | 0 | 0 | 0 | 0 | 0 | – | 0 | 0 | 0 | 0 | 0 | 0 | 0 | 0 | 0 | 0 | 0 | 0 | 0 | 0 |
| O=S(=O)(NCCNC/C=C/c1ccc(Br)cc1)c1cccc2cnccc12 [H-89 (dihydrochloride)] (10 µM) | – | – | 0 | 0 | 0 | 0 | 0 | 0 | 0 | 0 | 0 | 0 | 0 | 0 | 0 | 0 | 0 | 0 | 0 | 0 |
| O=C(c1ccc(-c2ccc(Cl)cc2)o1)N(Cc1ccccn1)c1ccc(N2CCNCC2)cc1 [MK2-IN-1 (hydrochloride)] (10 µM) | 0 | 0 | 0 | 0 | – | 0 | 0 | 0 | 0 | 0 | 0 | 0 | 0 | 0 | 0 | 3 | 0 | 1 | 0 | 3 |
| O=C(/C=C/c1ccc(O)c(O)c1)c1ccc(O)cc1O [Butein] (10 µM) | 2 | 0 | 0 | 3 | 3 | 0 | – | 0 | 0 | 3 | 4 | 0 | 0 | 4 | 2 | 3 | 0 | 2 | 3 | 3 |
| CN1CCC(Nc2ncc3ncnc(Nc4ccc(F)c(Cl)c4)c3n2)CC1 [Falnidamol] (10 µM) | – | – | 0 | 0 | 0 | 0 | 0 | 0 | 0 | 0 | 0 | 0 | 0 | 0 | 0 | 0 | 0 | 0 | 0 | 0 |
| C/C=C(/C)C(=O)O[C@H]1Cc2cc3ccc(=O)oc3cc2OC1(C)C [Decursinol angelate] (10 µM) | 0 | – | 0 | 0 | 0 | 0 | 0 | 0 | 0 | 0 | 0 | 0 | 0 | 0 | 0 | 0 | 0 | 0 | 0 | 0 |
| Cc1cc(C(=O)Nc2cccc(C(=O)Nc3cccc(C(F)(F)F)c3)c2)on1 (10 µM) | 0 | – | 0 | 0 | 0 | 0 | 0 | 0 | 0 | 0 | 0 | 0 | 0 | 0 | 0 | 0 | 0 | – | – | 0 |
| O=C(O)CCNC(=O)c1ccc(/N=N/c2ccc(O)c(C(=O)O)c2)cc1 [Balsalazide] (10 µM) | 0 | – | 0 | 0 | 0 | 0 | 0 | 0 | 0 | 0 | 0 | 0 | 0 | 0 | 0 | 0 | 0 | 0 | 0 | 0 |
| C[C@H](NC(=O)/C(C#N)=C/c1cccc(Br)n1)c1ccccc1 (2.5 µM) | 0 | – | 0 | 0 | 0 | 0 | 0 | 0 | 0 | 0 | 3 | 0 | 0 | 0 | 0 | 0 | 0 | 0 | 3 | 0 |
| Cc1ccc2c(Nc3cccc(OC(F)(F)F)c3)nccc2c1Nc1ncccc1-c1ncnc2[nH]cnc12 (10 µM) | 0 | 0 | 0 | 0 | 0 | 0 | – | 0 | 0 | 0 | 0 | 0 | 0 | 0 | 0 | 0 | 0 | 0 | 0 | 0 |
| Cc1c[nH]c2ccccc12 [Skatole] (10 µM) | 0 | – | 0 | 0 | 0 | 0 | 0 | 0 | 0 | 0 | 0 | 0 | 0 | 0 | 0 | 0 | 0 | 0 | 0 | 0 |
| O=c1oc2c(O)c(O)cc3c(=O)oc4c(O)c(O)cc1c4c23 [Ellagic acid] (10 µM) | – | – | 0 | 0 | 0 | 0 | 0 | 0 | 0 | 0 | 0 | 0 | 0 | 0 | 0 | 0 | 0 | 0 | 0 | 0 |
| COc1cc(OC)cc(-c2cc3cnc(N)nc3nc2NC(=O)NC(C)(C)C)c1 (10 µM) | – | – | 0 | 0 | 0 | 0 | 0 | 0 | 0 | 0 | 0 | 0 | 0 | 0 | 0 | 0 | 0 | 0 | 0 | 0 |
| O=c1cc(-c2ccccc2)oc2c(O)c(O)ccc12 [7,8-Dihydroxyflavone] (10 µM) | 0 | 0 | 0 | 0 | 0 | – | 0 | 0 | 0 | 0 | 0 | 0 | 0 | 0 | 0 | 0 | 0 | 0 | 0 | 0 |
| O=C([O-])c1ccccc1O.[Na+] [Sodium Salicylate] (10 µM) | 0 | – | 0 | 0 | 0 | 0 | 0 | 0 | 0 | 0 | 0 | 0 | 0 | 0 | 0 | 0 | 0 | 0 | 0 | 0 |
